PubChem BioAssay AID1259254 | NCATS – 2017
Here is an unselected part of about 59,000 deposited reagents. Over the whole deposit, about 1,550 (2.6%) were called active. 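G2 share is only a proxy for re-replication; each gene was hit by three separate siRNAs, and active genes were retested.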 The raw values are shown without normalisation. Entries without a mark were called inactive. Reagents against one gene are numbered here. Not given: the amount of reagent.

- Purpose: 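Finding genes that stop cells copying their DNA twice in one cycle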 (primary screen)
- Cell system: human HCT116 colorectal cancer cells
- Knock-down reagent: single siRNA against human genes
- Timing: 3 days
- Read-out: 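Nuclei stained with Hoechst and imaged; cell-cycle phase assigned by DNA content; G2 share scaled per plate, non-targeting siRNA 0%, GMNN siRNA 100%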
- Direction: G2 robust z-score and G2 cells, % of GMNN control: higher = more G2 cells, more excess DNA replication; raw share of cells in G2: higher = larger share of cells with G2 DNA content
- Call rule: 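Active siRNAs have a G2 robust z of 5 or more median absolute deviations over the median, which in these data means about 38% or higher of GMNN control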

target	siRNA no.	G2 robust z-score	G2 cells, % of GMNN control	raw share of cells in G2 (%)
HOXB5	1	4.49	34.5	17.6
HOXB5	2	-0.835	-2.91	4.58
HOXB5	3	0.576	7.02	6.78
IFRD1	1	-1.4	-6.91	2.06
IFRD1	2	-0.219	1.43	4.61
IFRD1	3	-0.135	2.02	4.31
TMUB1	1	-0.215	1.45	2.85
TMUB1	2	0.993	9.96	7.42
TMUB1	3	1.92	16.5	8.34
PAX8	1	-0.55	-0.899	3.93
PAX8	2	-0.532	-0.776	5.27
PAX8	3	0.187	4.28	5.89
DEFB104A	1	0.46	6.2	4.83
DEFB104A	2	-0.544	-0.86	3.85
DEFB104A	3	0.0765	3.51	4.21
MFSD6L	1	0.245	4.69	5.28
MFSD6L	2	0.738	8.16	5.7
MFSD6L	3	-0.547	-0.883	2.48

The list goes on (4 carried over from the part before).
target	siRNA no.	G2 robust z-score	G2 cells, % of GMNN control	raw share of cells in G2 (%)
DEFB104A	3	0.0765	3.51	4.21
MFSD6L	1	0.245	4.69	5.28
MFSD6L	2	0.738	8.16	5.7
MFSD6L	3	-0.547	-0.883	2.48
MYORG	1	1.42	13	9.46
MYORG	2	-0.676	-1.79	3.6
MYORG	3	1.49	13.4	7.29
CCL3	1	3.21	25.6	15.8
CCL3	2	-0.911	-3.44	2.86
CCL3	3	-0.7	-1.96	2.65
C10orf71	1	0.396	5.75	6.4
C10orf71	2	0.212	4.46	4.66
C10orf71	3	0.152	4.03	3
KIF6	1	-0.551	-0.912	5.52
KIF6	2	-0.0441	2.66	5.67
KIF6	3	0.598	7.18	7.72
